# Assay results published in PubChem BioAssay AID2685 (National Center for Advancing Translational Sciences (NCATS), 2010).
# The list shows a part of the results. Shown are side measurements of this screen, not its main read-out; they come without a call. Compounds called inactive in the main read-out are mostly missing here. Words in brackets tell the shape of the fitted curve; partial curves, single points and poor fits give uncertain potencies.
# Assay: qHTS Assay for Lipid Storage Modulators in Drosophila S3 Cells;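 as to cell number change: cells counted by Cell Tracker Red CMTPX staining in the red channel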
# Details: BODIPY lipid droplet fluorescence, 18-24 h; for cell number change: measured here: cell count max response, cells fed with added oleic acid
# Outline: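 Laser-scanning cytometry quantifies lipid droplet accumulation (500–530 nm total intensity; droplet/cell object ratio) in oleic acid-fed (400 uM added) Drosophila S3 cells treated with a concentration series. 20 uM Triacsin C defined 100% inhibition.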
# [1] = measured here: cell number channel AC50, cells fed with added oleic acid
# [2] = measured here: lipid fluorescence (Fed channel) AC50, cells fed with added oleic acid
Compound,cell number change [%],AC50 [1],AC50 [2]
Cn1cnc([N+](=O)[O-])c1S(=O)(=O)c1cccc(Cl)c1,-84.8,"23.1 µM [falling, partial curve]","14.6 µM [falling, partial curve]"
O=c1c2cnn(-c3ccccc3)c2nc(-c2ccco2)n1-c1ccccc1,33.7,"29.1 µM [rising, single point]","16.4 µM [rising, single point]"
COc1ccc(N)cc1-n1cnnn1,-23.8,"1.64 µM [falling, partial curve, poor fit]","1.84 µM [falling, partial curve, poor fit]"
COc1ccc(CC(=O)NC(c2ccccc2)c2ccc(C)cc2)c(OC)c1 (centres undefined),-6.94,–,"6.51 µM [rising, partial curve]"
COc1cccc(CNC(=O)c2ccncc2)c1,13.5,–,"0.00517 µM [falling, full curve, poor fit]"
CC1=NN(C(=O)c2ccc(Cn3nc(C)c([N+](=O)[O-])c3C)o2)C(O)(C(F)(F)F)C1 (centres undefined),40.6,"8.2 µM [rising, partial curve]","13 µM [rising, partial curve, poor fit]"
COc1cccc(-c2cc(C(=O)N3CCOCC3)no2)c1,17.1,"0.291 µM [rising, full curve, poor fit]","29.1 µM [rising, partial curve, poor fit]"
CCc1cn([C@H]2C[C@H](O)[C@@H](CO)O2)c(=O)[nH]c1=O,–,–,"29.1 µM [rising, single point]"
O=C(NC(NC(=S)Nc1cccc(C(=O)O)c1)C(Cl)(Cl)Cl)OCc1ccccc1 (centres undefined),1.57,–,"11.6 µM [rising, partial curve]"
c1cn(-c2ncnc3sc4c(c23)CCCC4)cn1,5.1,–,–
Cc1cc(C(=O)CSc2nnc(N)s2)c(C)n1C1CC1,-16.5,–,–
CCc1ccc(CNC(=O)c2nn(C)c3c2CS(=O)(=O)c2ccccc2-3)cc1,18.2,–,–
COc1ccc(N2C(=O)c3ccccc3NC2c2ccccc2O)cc1 (centres undefined),-17.7,–,"0.58 µM [falling, single point]"
COc1ccc(CCNC(=O)COC(=O)C2CCCCC2)cc1,19.3,"4.11 µM [falling, single point]",–
CSCCC(=O)NC1CCCN(CCc2ccccc2)C1 (centres undefined),13,–,"20.6 µM [rising, partial curve]"
Cc1cccc(NC(=S)NCCO)c1C,–,–,"0.731 µM [falling, full curve]"
C#CCCCc1nc2ccccc2c(=O)n1N,21.5,–,–
CCOC(=O)c1cc(CC)sc1NC(=O)c1ccc([N+](=O)[O-])c(N2CCOCC2)c1,12.8,–,–
Cc1ccc(NC2CCCCC2NS(=O)(=O)c2ccccc2)c(C)c1 (centres undefined),–,–,"29.1 µM [falling, single point]"
Cc1ccc(S(=O)(=O)NCC(=O)N(CC(=O)NCC2CCCO2)Cc2ccccc2)cc1 (centres undefined),15.5,–,–
O=C(CCCn1c(=S)[nH]c2ccccc2c1=O)NC1CCCCC1,-20.9,–,"29.1 µM [rising, single point]"

# Quoted from the listing.
# CCOC(=O)c1cc(CC)sc1NC(=O)c1ccc([N+](=O)[O-])c(N2CCOCC2)c1 | cell number change [%]: 12.8
# CCc1ccc(CNC(=O)c2nn(C)c3c2CS(=O)(=O)c2ccccc2-3)cc1 | cell number change [%]: 18.2

# Next part:

Compound,cell number change [%],AC50 [1],AC50 [2]
Cc1c(NC(=O)COc2cccc(Cl)c2Cl)c(=O)n(-c2ccccc2)n1C,28.3,–,–
COc1cccc(CC(=O)N2CCN(c3ccccc3[N+](=O)[O-])CC2)c1,–,"0.164 µM [rising, full curve, poor fit]","0.116 µM [rising, full curve, poor fit]"
CCN(C(=O)c1cn(C)c(=O)c2cc(OC)c(OC)cc12)c1cc(OC)ccc1OC,-10.7,–,"0.116 µM [falling, full curve, poor fit]"
CC(C)NS(=O)(=O)c1ccc(CCC(=O)Nc2cc(Cl)ccc2Oc2ccccc2)cc1,–,–,"6.51 µM [falling, single point]"
Nc1nonc1C(=O)N/N=C/c1ccc(-c2ccc(Cl)c(C(=O)O)c2)o1,-73.4,"29.1 µM [falling, single point]",–
CC(=O)c1ccccc1NC(=O)COC(=O)/C=C/c1ccc(OC(F)F)cc1,-8.01,"4.11 µM [falling, single point]",–
CC(C)c1ccccc1OCCNC(=S)NC(=O)c1cccnc1,-18,–,"29.1 µM [falling, single point]"
Cc1ccc(NC(=O)CN2C(=O)S/C(=C\C(=O)Nc3ccc(Cl)cc3)C2=O)cc1,-52.9,"29.1 µM [falling, single point]",–
CC(=O)Nc1cc2c(s1)c1cnn(Cc3ccccc3F)c(=O)c1n2C,49.6,"25.9 µM [rising, single point]",–
CC1CCCCC1NC(=O)CO/N=C/c1ccccc1OC(F)F (centres undefined),–,–,"5.17 µM [falling, partial curve]"
Cc1cccn2c(=O)nc(SCC(=O)N3CCC(Cc4ccccc4)CC3)nc12,37.7,"2.06 µM [rising, full curve, poor fit]","1.84 µM [rising, partial curve]"
C=CCn1c(N)c(C(=O)Nc2cccc(C)c2)c2nc3ccccc3nc21,-46.2,"25.9 µM [falling, single point]","20.6 µM [falling, single point]"
O=C(/C=C\Nc1ccccn1)c1ccccc1,43.4,"18.4 µM [rising, single point]",–
CCN(C(=O)Cc1ccc(Br)cc1)C1CCCCC1,-60.8,"32.6 µM [falling, single point]","0.731 µM [falling, single point]"
COc1ccc(NC(=O)COC(=O)c2cccc(S(=O)(=O)N(C)C)c2)cc1,–,–,"0.58 µM [falling, single point]"
COC(=O)c1cn(C(=O)c2ccc(C)cc2)c2ccccc12,-1.5,–,–
C=CCCC(=O)Nc1nc(C)c(-c2csc(Nc3cc(Cl)ccc3OC)n2)s1,-0.176,–,"5.17 µM [falling, partial curve]"
C=CCn1c(Sc2ncc([N+](=O)[O-])s2)n[nH]c1=O,-72.7,"3.26 µM [falling, full curve]","4.61 µM [falling, full curve]"
COc1cc([N+](=O)[O-])ccc1NC(=O)Cc1ccc(C)cc1,4.44,"0.501 µM [rising, full curve, poor fit]","0.794 µM [rising, full curve, poor fit]"
CCC(=O)NCCCCCCNC(=O)CC,-33.4,"5.8 µM [falling, full curve]","3.66 µM [falling, full curve]"
COc1cc2c(cc1OC)C(=S)NC1(CCCC1)C2,–,–,"0.92 µM [rising, full curve, poor fit]"

Compound,cell number change [%],AC50 [1],AC50 [2]
CN1C(=O)C2(OCC(COc3ccc(Cl)cc3)O2)c2ccccc21 (centres undefined),-0.364,–,–
COC(=O)CSc1ccc(S(=O)(=O)N2CCC(C)CC2)cc1[N+](=O)[O-],-8.29,–,"5.8 µM [rising, single point]"
O=C(COC(=O)C1=COCCO1)NCc1ccc(Cl)cc1,57.3,"6.51 µM [rising, full curve]","2.59 µM [rising, full curve]"
Cc1ccc(/C(N)=N/OC(=O)/C=C/c2ccccc2)cc1,162,–,–
COC(=O)c1ccc2c(=O)n(CC3CCCO3)c(SCC(=O)Nc3ccccc3Cl)nc2c1 (centres undefined),–,"1.46 µM [rising, partial curve]","1.46 µM [rising, partial curve]"
Cc1nn(C)c2ncc(C(=O)c3cc(F)ccc3O)cc12,5.88,–,"0.184 µM [falling, full curve]"
O=C(CCCCCn1c(=S)[nH]c2cc3c(cc2c1=O)OCO3)N1CCN(c2ccccc2)CC1,-14.9,–,–
COc1ccc([N+](=O)[O-])c(S(=O)(=O)c2ccccc2)n1,-66.9,"25.9 µM [falling, partial curve]","20.6 µM [falling, partial curve]"
O=C(CCNC(=O)c1ccc([N+](=O)[O-])cc1)Nc1ccccc1N1CCCCC1,-7.47,–,"6.51 µM [falling, partial curve]"
CCc1ccccc1OCC(=O)OCC(=O)Nc1cc(C)on1,0.669,–,"16.4 µM [falling, single point]"
COC(=O)c1ccc(NC(=S)N2CCN(Cc3ccccc3OC)CC2)cc1,4,–,–
O=C1C2CCCN2C(=S)N1c1cc(Cl)ccc1Cl (centres undefined),-10.4,–,"29.1 µM [rising, single point]"
COc1ccc(-n2nnc3c(=O)n(Cc4cccc(C)c4)cnc32)cc1,–,–,"0.13 µM [rising, full curve, poor fit]"
COc1ccc(C2CCCCCN2Cc2nc3ccccc3c(=O)n2CC(N)=O)cc1 (centres undefined),27.1,"0.206 µM [rising, full curve, poor fit]","0.651 µM [rising, single point]"
c1ccc(-c2ccccc2OCCOCCN2CCOCC2)cc1,-26.8,–,–
O=C(Cn1ccc([N+](=O)[O-])n1)Nc1nc2ccccc2s1,-2.3,–,"2.59 µM [falling, partial curve]"
CC(CNC(=O)c1ccc(-c2ccccc2)cc1)CN(C)C (centres undefined),6.22,–,"0.13 µM [falling, full curve, poor fit]"
CCN(c1ccccc1)S(=O)(=O)c1cc2c(cc1C)n(C)c(=O)c(=O)n2C,–,–,"10.3 µM [falling, partial curve]"
CC1(C)CC(=O)C(C=Nc2ccccc2Sc2ccccc2)=C(O)C1,-2.25,"5.8 µM [falling, single point]",–

# Filtered by structure: those above with a Cl atom.
Compound,cell number change [%],AC50 [1],AC50 [2]
Cn1cnc([N+](=O)[O-])c1S(=O)(=O)c1cccc(Cl)c1,-84.8,"23.1 µM [falling, partial curve]","14.6 µM [falling, partial curve]"
O=C(NC(NC(=S)Nc1cccc(C(=O)O)c1)C(Cl)(Cl)Cl)OCc1ccccc1 (centres undefined),1.57,–,"11.6 µM [rising, partial curve]"
Cc1c(NC(=O)COc2cccc(Cl)c2Cl)c(=O)n(-c2ccccc2)n1C,28.3,–,–
CC(C)NS(=O)(=O)c1ccc(CCC(=O)Nc2cc(Cl)ccc2Oc2ccccc2)cc1,–,–,"6.51 µM [falling, single point]"
Nc1nonc1C(=O)N/N=C/c1ccc(-c2ccc(Cl)c(C(=O)O)c2)o1,-73.4,"29.1 µM [falling, single point]",–
Cc1ccc(NC(=O)CN2C(=O)S/C(=C\C(=O)Nc3ccc(Cl)cc3)C2=O)cc1,-52.9,"29.1 µM [falling, single point]",–
C=CCCC(=O)Nc1nc(C)c(-c2csc(Nc3cc(Cl)ccc3OC)n2)s1,-0.176,–,"5.17 µM [falling, partial curve]"
CN1C(=O)C2(OCC(COc3ccc(Cl)cc3)O2)c2ccccc21 (centres undefined),-0.364,–,–
O=C(COC(=O)C1=COCCO1)NCc1ccc(Cl)cc1,57.3,"6.51 µM [rising, full curve]","2.59 µM [rising, full curve]"
COC(=O)c1ccc2c(=O)n(CC3CCCO3)c(SCC(=O)Nc3ccccc3Cl)nc2c1 (centres undefined),–,"1.46 µM [rising, partial curve]","1.46 µM [rising, partial curve]"
O=C1C2CCCN2C(=S)N1c1cc(Cl)ccc1Cl (centres undefined),-10.4,–,"29.1 µM [rising, single point]"
